US20220305003A1, “METHODS OF TREATING CANCER WITH AN INHIBITOR OF ZNF827” (CHILDREN'S MEDICAL RESEARCH INSTITUTE, priority 2019, published 2022)
For at least one compound, name, drawing or mass did not settle the structure.

System: panel of 660 cell lines
Test: Drug sensitivity (Sanger GDSC IC50) versus ZNF827 gene expression
Format: cell-based
Conditions: natural log of the IC50 from Sanger GDSC v17.3; low log2(TPM) <1 vs normal; Nemenyi test, adjusted p-value<0.05
Experimental: ZNF827 gene expression for the 660 cell lines was plotted on a histogram and grouped by gene expression level, represented as log2(TPM), into “low” (<1), “normal” (>1, <5) and “high” (>5). […] The Nemenyi statistical test was used to test for significant differences between “low” and “normal” ZNF827 expression groups for drug sensitivity for each compound. P-values were then corrected for multiple testing using FDR correction. […] All statistical analysis was performed in R (version 3.6.0), using the “stats” (version 3.6.0) and “PMCMR” (version 4.3) libraries.

CNC(=O)c1ccccc1Sc1ccc2c(/C=C/c3ccccn3)n[nH]c2c1 [Axitinib]
drug sensitivity in cell lines with low ZNF827 compared to cell lines with normal ZNF827 expression: Increased sensitivity
